Literature values in US8999646B2, “Quality control bioassays for nutriceutical and medicinal products” (President and Fellows of Harvard College, priority 2009, dated 2015).
For at least one compound, name, drawing or mass did not settle the structure.

Key:
CHOP = conditions: cancer cells and tumors excised from animal cancer models or human patients
BiP = conditions: cancer cells and tumors excised from animal cancer models or human patients
BRCA1 mRNAb = conditions: breast cancer cell lines and animal tumors

CC/C=C\C/C=C\C/C=C\C/C=C\C/C=C\CCCC(=O)O [EPA, eicosapentaenoic acid]
CHOP expression (CHOP): up-regulated
BiP (Glucose regulated protein 78) expression (BiP): up-regulated
translation of BRCA1 mRNAb (BRCA1 mRNAb): increased the translation
